Assay results: PubChem BioAssay AID248 (DTP/NCI, 2004)
The list shows only some results of the screen, not a fair sample: it gathers tests that were run many times, whatever their T/C, doses with no T/C, and many T/C values between a quarter and a half above the control. Further doses and runs are listed elsewhere. T/C is the treated group as % of the vehicle group. Some doses have a count of surviving animals in place of a T/C: the source files T/C as zero there, which appears to mark a toxic dose or a test without result, not a measured value. Some doses without a T/C left all or most animals alive at the check, yet need not have been tolerated: survival well below the control is almost never listed, so the zero probably covers shortened survival too. Survivors were counted at the toxicity check, usually on the fifth day, unless a day is given; later deaths do not show. Schedules are NCI's codes, taken here to give the interval after Q, in days (D) or hours (H), and the number of doses after X. Some schedules carry Z or #; the key to these is not given. For survival time, the PubChem record calls one and a half times the control and up active, and a quarter to a half above the control has no call in these data; cut-offs in other NCI protocols can differ. Some doses were run more than once; their values stand side by side, smallest first. Some T/C values are followed by the survivors on the day toxicity was checked, most often the fifth; without a count, all were alive then.

Tested on: L1210 leukemia ip in BDF1 mice, survival T/C
Assay: NCI In Vivo Anticancer Drug Screen. Data for tumor model L1210 Leukemia (intraperitoneal) in B6D2F1 (BDF1) mice
Conditions: T/C endpoint: mean survival time, higher T/C = longer survival
[1] = dose: 100.0 mg/kg/injection, schedule: Q01DX001 (ip), vehicle: saline
[2] = dose: 400.0 mg/kg/injection, schedule: Q01DX001 (ip), vehicle: saline

For CC(=O)OCC1OC(n2ccc(N)nc2=O)C(OC(C)=O)C1OC(C)=O (configuration not stated), the T/C (dose: 18.0 mg/kg/injection, schedule: Q01DX009 (ip), vehicle: carboxymethylcellulose (CMC)) was 126 % of control, the T/C (dose: 18.0 mg/kg/injection, schedule: Q03HX008 (ip), vehicle: carboxymethylcellulose (CMC)) was 138 % of control and the survivor count (dose: 18.0 mg/kg/injection, schedule: Q## X024 (oral), vehicle: water) was 3 of 10. For the same compound, the T/C (dose: 30.0 mg/kg/injection, schedule: Q01DX009 (ip), vehicle: carboxymethylcellulose (CMC)) was 149 % of control, the T/C (dose: 30.0 mg/kg/injection, schedule: Q01DX011 (oral), vehicle: water) was 133 % of control and the T/C (dose: 30.0 mg/kg/injection, schedule: Q03HX008 (ip), vehicle: carboxymethylcellulose (CMC)) was 142 % of control. For the same compound, the survivor count (dose: 37.0 mg/kg/injection, schedule: Q## X008 (oral), vehicle: water) was 6 of 10, the T/C (dose: 45.0 mg/kg/injection, schedule: Q01DX011 (oral), vehicle: water) was 132 % of control and the T/C (dose: 50.0 mg/kg/injection, schedule: Q01DX015 (oral), vehicle: carboxymethylcellulose (CMC)) was 135 % of control. The T/C (dose: 65.0 mg/kg/injection, schedule: Q01DX011 (oral), vehicle: water) was 145 % of control, the survivor count (dose: 75.0 mg/kg/injection, schedule: Q## X008 (oral), vehicle: water) was 3 of 10 and the T/C (dose: 75.0 mg/kg/injection, schedule: Q## X024 (oral), vehicle: water) was 135 % of control [8 of 10 alive]. For the same compound, the T/C (dose: 85.0 mg/kg/injection, schedule: Q01DX015 (ip), vehicle: saline) was 147 % of control, the T/C (dose: 125.0 mg/kg/injection, schedule: Q01DX015 (ip), vehicle: saline) was 129 % of control and the T/C (dose: 150.0 mg/kg/injection, schedule: Q01DX005 (oral), vehicle: water) was 127 % of control. The T/C (dose: 150.0 mg/kg/injection, schedule: Q01DX009 (oral), vehicle: water) was 146 % of control, the survivor count (dose: 150.0 mg/kg/injection, schedule: Q## X008 (oral), vehicle: water) was 4 of 10 and the T/C (dose: 300.0 mg/kg/injection, schedule: Q01DX001 (sc), vehicle: water) was 130 % of control. The T/C (dose: 300.0 mg/kg/injection, schedule: Q01DX005 (oral), vehicle: water) was 130 % of control, the T/C (dose: 300.0 mg/kg/injection, schedule: Q## X003 (oral), vehicle: water) was 140 % of control and the survivor count (dose: 300.0 mg/kg/injection, schedule: Q## X008 (oral), vehicle: water) was 3 of 10. The survivor count (dose: 300.0 mg/kg/injection, schedule: Q## X024 (oral), vehicle: water) was 5 of 10, the survivor count (dose: 400.0 mg/kg/injection, schedule: Q01DX009 (ip), vehicle: water) was 10 of 10 and the survivor count (dose: 400.0 mg/kg/injection, schedule: Q01DX009 (sc), vehicle: water) was 10 of 10. For the same compound, the T/C (dose: 500.0 mg/kg/injection, schedule: Q01DX001 (ip), vehicle: saline) was 134 % of control, the survivor count (dose: 500.0 mg/kg/injection, schedule: Q01DX015 (ip), vehicle: saline) was 6 of 6 and the T/C (dose: 600.0 mg/kg/injection, schedule: Q01DX001 (ip), vehicle: water) was 136 % of control. For the same compound, the T/C (dose: 600.0 mg/kg/injection, schedule: Q01DX001 (sc), vehicle: water) was 137 % of control, the T/C (dose: 600.0 mg/kg/injection, schedule: Q01DX005 (oral), vehicle: water) was 148 % of control and the T/C (dose: 600.0 mg/kg/injection, schedule: Q## X008 (oral), vehicle: water) was 125 % of control. For the same compound, the T/C (dose: 660.0 mg/kg/injection, schedule: Q01DX001 (ip), vehicle: carboxymethylcellulose (CMC)) was 133 % of control, the T/C (dose: 1200.0 mg/kg/injection, schedule: Q01DX001 (ip), vehicle: water) was 145 % of control and the T/C (dose: 1200.0 mg/kg/injection, schedule: Q01DX001 (sc), vehicle: water) was 141 % of control. For the same compound, the T/C (dose: 1200.0 mg/kg/injection, schedule: Q01DX009 (oral), vehicle: water) was 128 % of control [9 of 10 alive], the T/C (dose: 1200.0 mg/kg/injection, schedule: Q## X006 (oral), vehicle: water) was 131 % of control and the T/C (dose: 1200.0 mg/kg/injection, schedule: Q## X008 (oral), vehicle: water) was 147 % of control. For the same compound, the T/C (dose: 1200.0 mg/kg/injection, schedule: Q## X024 (oral), vehicle: water) was 131 % of control, the T/C (dose: 2400.0 mg/kg/injection, schedule: Q01DX001 (oral), vehicle: water) was 140 % of control and the T/C (dose: 2400.0 mg/kg/injection, schedule: Q## X008 (oral), vehicle: water) was 144 % of control. For the same compound, the T/C (dose: 2400.0 mg/kg/injection, schedule: Q## X024 (oral), vehicle: water) was 145 % of control, the survivor count (dose: 3053.0 mg/kg/injection, schedule: Q01DX001 (ip), vehicle: carboxymethylcellulose (CMC)) was 0 of 10 and the survivor count (dose: 3053.0 mg/kg/injection, schedule: Q04DX003 (ip), vehicle: carboxymethylcellulose (CMC)) was 3 of 10.

For NP(=S)(Oc1ccc(Cl)cc1)Oc1ccc(Cl)cc1, the survivor count (dose: 50.0 mg/kg/injection, schedule: Q04DX002 (ip), vehicle: gum acacia) was 0 of 3, the survivor count (dose: 100.0 mg/kg/injection, schedule: Q04DX002 (ip), vehicle: gum acacia) was 0 of 3 and the survivor count (dose: 200.0 mg/kg/injection, schedule: Q04DX002 (ip), vehicle: gum acacia) was 0 of 3. For the same compound, the survivor count (dose: 400.0 mg/kg/injection, schedule: Q04DX002 (ip), vehicle: gum acacia) was 0 of 3.

For SCC(CS)c1nncc2ccccc12, the survivor count [1] was 3 of 6, the survivor count (dose: 200.0 mg/kg/injection, schedule: Q01DX001 (ip), vehicle: saline) was 0 of 6 and the survivor count [2] was 0 of 6.

With CCCCCCCCCC(O)CCCC (configuration not stated) the survivor count (dose: 200.0 mg/kg/injection, schedule: Q01DX009 (ip), vehicle: saline with Tween-80) was 4 of 6 and the survivor count (dose: 400.0 mg/kg/injection, schedule: Q01DX009 (ip), vehicle: saline with Tween-80) was 4 of 6.

In the case of O=C1c2ccccc2C(=O)N1Cc1cccc(Nc2cc(=O)[nH]c(=O)[nH]2)c1, the survivor count (dose: 100.0 mg/kg/injection, schedule: Q01DX001 (ip), vehicle: saline with Tween-80) is reported as 6 of 6 and the survivor count (dose: 400.0 mg/kg/injection, schedule: Q01DX001 (ip), vehicle: saline with Tween-80) is reported as 6 of 6.

For CNC(Cl)(Cl)NC, the survivor count (dose: 200.0 mg/kg/injection, schedule: Q01DX009 (ip), vehicle: saline) was 3 of 3 and the survivor count (dose: 400.0 mg/kg/injection, schedule: Q04DX002 (ip), vehicle: saline) was 2 of 3.

COC1C(O)C(C)OC(OC2CC3CCC4C(CCC5(C)C(C6=CC(=O)OC6)CCC45O)C3(C)C(OC(C)=O)C2)C1O (configuration not stated) (tested in a mixture with another compound) was tested, and the survivor count (dose: 50.0 mg/kg/injection, schedule: Q01DX009 (sc), vehicle: steroid suspending solution) was 3 of 6, the survivor count (dose: 100.0 mg/kg/injection, schedule: Q01DX009 (sc), vehicle: steroid suspending solution) was 0 of 6 and the survivor count (dose: 200.0 mg/kg/injection, schedule: Q01DX009 (sc), vehicle: steroid suspending solution) was 0 of 6.

In the case of CCOC(=O)/C(C#N)=C(\CC)c1ccccc1, the survivor count (dose: 400.0 mg/kg/injection, schedule: Q01DX009 (ip), vehicle: Klucel (hydroxypropylcellulose) (HPC)) is reported as 0 of 6.

COc1cc(C(=O)COC(C)=O)cc2c1OC(c1ccccc1)(c1ccccc1)O2 was tested, and the survivor count [1] was 4 of 4 and the survivor count [2] was 4 of 4.

For CC1CN1P(=S)(N1CC1C)N1CC1C (configuration not stated), the T/C (dose: 15.0 mg/kg/injection, schedule: Q01DX015 (ip), vehicle: saline) was 131 % of control, the T/C (dose: 24.0 mg/kg/injection, schedule: Q01DX015 (ip), vehicle: saline) was 130 % of control and the T/C (dose: 30.0 mg/kg/injection, schedule: Q01DX015 (ip), vehicle: saline) was 130 and 134 % of control. The T/C (dose: 48.0 mg/kg/injection, schedule: Q01DX001 (ip), vehicle: saline) was 127 % of control, the T/C (dose: 72.0 mg/kg/injection, schedule: Q01DX001 (ip), vehicle: saline) was 125 % of control and the T/C (dose: 96.0 mg/kg/injection, schedule: Q01DX001 (ip), vehicle: saline) was 132 % of control. For the same compound, the T/C [1] was 144 % of control [5 of 6 alive], the survivor count (dose: 120.0 mg/kg/injection, schedule: Q01DX015 (ip), vehicle: saline) was 5 of 6 and the survivor count (dose: 144.0 mg/kg/injection, schedule: Q01DX Z (ip), vehicle: saline) was 6 of 6. The survivor count (dose: 324.0 mg/kg/injection, schedule: Q01DX001 (ip), vehicle: saline) was 6 of 6 and the survivor count [2] was 3 of 6.
